For 62 molecules, cell number change and AC50 results are on record in PubChem BioAssay AID2685 (National Center for Advancing Translational Sciences (NCATS), 2010).

Some of the results follow. Shown are side measurements of this screen, not its main read-out; they come without a call. The list favours compounds with an active or inconclusive main result. The note in brackets gives the kind of curve behind each potency; many fits are weak.

This experiment is described as follows: qHTS Assay for Lipid Storage Modulators in Drosophila S3 Cells.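 On cell number change: cells counted by Cell Tracker Red CMTPX staining in the red channel.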 The settings on record: BODIPY lipid droplet fluorescence, 18-24 h; for cell number change: measured here: cell count max response, cells fed with added oleic acid. The method in brief: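 Laser-scanning cytometry quantifies lipid droplet accumulation (500–530 nm total intensity; droplet/cell object ratio) in oleic acid-fed (400 uM added) Drosophila S3 cells treated with a concentration series. 20 uM Triacsin C defined 100% inhibition.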
(In general: Quantitative high-throughput screening tests each substance at several concentrations.)

The mark [1] stands for this setting: measured here: cell number channel AC50, cells fed with added oleic acid.
The mark [2] stands for this setting: measured here: lipid fluorescence (Fed channel) AC50, cells fed with added oleic acid.

As to `COC(=O)c1ccccc1S(=O)(=O)Nc1ccc(OC)nc1`, the cell number change is 22.7%.

A word on the AC50: it is the concentration giving half of the maximal activity seen. Read a low AC50 as activity at low concentration. Turning to `O=C(Oc1ccc2ccc(OC(=O)N3CCCCCC3)cc2c1)N1CCCCCC1`, the cell number change was -11.2%. Further, the AC50 under setting [1] was 1.64 µM [rising, partial curve]. In addition, the AC50 under setting [2] is 2.06 µM [rising, partial curve].

For `O/N=C/c1ccccc1OCc1ccccc1Cl`, the cell number change was -25.9%. In addition, the AC50 under setting [2] was 20.6 µM [falling, single point].

Consider `COc1ccc(CCN(C)CC(O)c2ccccc2)cc1OC` (stereo unspecified), for which the cell number change turned out to be 2.73%.

Take `COc1ccccc1CCNC(=O)CCn1nc(C)c2c(C)n(-c3ccccc3)nc2c1=O`: the AC50 under setting [2] is 6.51 µM [falling, single point].

In the case of `COc1cccc(CCNC(=O)c2ccc(OC)c(OC3CCN(C(C)C)CC3)c2)c1`, the cell number change was 8.5%. Besides, the AC50 under setting [1] was 0.0146 µM [rising, full curve, poor fit].

`Cc1ccc(-c2csc(-c3ccncc3)n2)cc1`: the cell number change was 2.07%. In addition, the AC50 under setting [1] is 0.0259 µM [rising, full curve, poor fit].

For the molecule `CCOC(=O)Nc1ccc(NC(=O)c2ccccc2F)cc1`, the cell number change was 133%. In addition, the AC50 under setting [1] is 23.1 µM [rising, single point]. Under setting [2], the AC50 is 0.731 µM [falling, single point].

`Cc1ccc(-n2nnnc2-c2cnc(-c3cccnc3)nc2C(F)(F)F)cc1`: the cell number change was -32.2%. Also, the AC50 under setting [2] is 6.51 µM [rising, single point].

As for `O=c1cc(O)c2sc3nc(-c4cccnc4)cc(C(F)(F)F)c3c2[nH]1`, the cell number change is 122%. Also, the AC50 under setting [2] was 1.84 µM [rising, partial curve].

For `CCOC(=O)N1CCN(C(=O)C(NC(=O)c2ccco2)C(C)C)CC1` (stereo unspecified), the cell number change turned out to be 6.99%. The AC50 under setting [2] is 0.00411 µM [rising, full curve, poor fit].

Turning to `Cc1cc(Cn2nc(C(=O)NCC3CC3)cc2-c2ccccc2)on1`, the cell number change was -39.5%. In addition, under setting [1], the AC50 was 29.1 µM [falling, single point]. For the same molecule, the concentration at half-maximal activity (AC50) under setting [2] was 29.1 µM [falling, single point].

For `Cc1ccccc1Nc1nc(=O)c2cc([N+](=O)[O-])ccc2s1`, the cell number change is -19.8%. In addition, under setting [2], the AC50 is 29.1 µM [falling, single point].

For the molecule `O=C(NCCc1cccc(Cl)c1)c1ccc(OC2CCN(Cc3ccccn3)CC2)cc1`, the cell number change is 1.16%. In addition, the AC50 under setting [2] was 29.1 µM [falling, single point].

Consider `O=C1c2ccccc2C(=O)N1CCCn1nnc(-c2ccc(N3CCOCC3)cc2)n1`, for which the cell number change is 2.16%. Under setting [2], the AC50 is 0.00461 µM [rising, partial curve, poor fit].

In the case of `CCC(NC(=O)NCc1ccc2c(c1)OCO2)(C(F)(F)F)C(F)(F)F`, the cell number change stood at 16.9%. The AC50 under setting [2] is 6.51 µM [rising, partial curve].

As for `COc1ccc(N2CCN(CC(=O)Nc3ccccc3C(=O)NCc3ccccc3)CC2)cc1`, the cell number change was -4.4%. Besides, the AC50 under setting [2] was 6.51 µM [rising, partial curve].

Consider `CN(C(=O)CSc1nnc(C2CC2)n1C)C1CCCc2ccccc21` (stereo unspecified), for which the cell number change was -14.1%.

On to `CCN(c1ccc(OC)cc1)S(=O)(=O)c1ccc2c(c1)CCN2C(=O)CCC(=O)O`, for which the cell number change was -47.8%. Further, the AC50 under setting [1] was 29.1 µM [falling, single point].

Consider `CC(Oc1ccccc1)C(=O)NC1CC(C)(C)NC(C)(C)C1` (stereo unspecified), for which the cell number change was -154%. Moreover, under setting [1], the AC50 is 25.9 µM [falling, partial curve]. The AC50 under setting [2] is 23.1 µM [falling, partial curve].

With `Cc1ccc(O)c(-c2cc(-c3cccc(F)c3)n[nH]2)c1`, the cell number change is -73.6%. In addition, the AC50 under setting [2] is 1.3 µM [falling, full curve].

On to `Cc1ccc(F)cc1NC(=O)c1c(-c2ccccc2)noc1C`, for which, under setting [2], the half-maximal activity concentration (AC50) is 0.092 µM [rising, full curve, poor fit].

`CCCCOc1ccc(CSc2nnc(C)n2N)cc1[N+](=O)[O-]`: the cell number change worked out at 12.7%. Also, under setting [2], the AC50 is 0.13 µM [rising, full curve, poor fit].

On to `CCN(CCNC(=O)C1CCN(S(=O)(=O)c2cccc3nsnc23)CC1)c1ccccc1`, for which the cell number change is -31.6%. Moreover, the AC50 under setting [1] was 29.1 µM [falling, single point].

As for `O=C(CCNS(=O)(=O)c1ccccc1)Nc1ccccc1`, the cell number change came to 10.4%. Besides, the AC50 under setting [2] is 0.651 µM [rising, partial curve, poor fit].

`CCCCCCn1c(SCCCC)nc2c1c(=O)[nH]c(=O)n2C`: the AC50 under setting [2] is 6.51 µM [rising, single point].

Regarding `COc1ccc(-n2cnnc2SCC(=O)c2cc(C)n(Cc3cccs3)c2C)cc1`, the cell number change was -5.45%. The AC50 under setting [1] is 1.46 µM [rising, full curve, poor fit].

As for `O=C(CS(=O)(=O)c1ccccc1)Nc1ccc(S(=O)(=O)Nc2ccccn2)cc1`, the cell number change is -4.22%. Also, the AC50 under setting [2] is 0.146 µM [falling, full curve, poor fit].

For the molecule `CC(C)Cn1[nH]c2c3c(ccc2c1=O)C(=O)c1ccccc1C3=O`, the cell number change was -60.7%. Further, the AC50 under setting [1] was 5.17 µM [falling, full curve]. Also, under setting [2], the AC50 is 4.11 µM [falling, partial curve].

On to `Cc1cccc(C(=O)NNC(=O)CSc2nnc(C3CC3)n2C)c1`, for which the cell number change is 10.3%.

Consider `CC(=O)N1CCC(N(C(=O)Nc2c(F)cccc2F)C(C)C)CC1`, for which the cell number change worked out at 11%. In addition, the AC50 under setting [2] is 6.51 µM [rising, single point].

With `CCCC(CCC)C(=O)Nc1ccc2c(c1)N(C(=O)CCN1CCN(C)CC1)c1ccccc1CC2`, the cell number change is -0.964%. The AC50 under setting [2] is 0.082 µM [falling, full curve, poor fit].

For the molecule `O=C(C1CC(=O)N(c2ccc(Cl)cc2)C1)N1CCN(Cc2ccc3c(c2)OCO3)CC1` (stereo unspecified), the cell number change was determined as 37.2%. For the same molecule, the AC50 under setting [1] was 29.1 µM [rising, single point]. Under setting [2], the AC50 was 29.1 µM [falling, single point].

In the case of `CN1CCN(S(=O)(=O)c2ccc(SCCOc3ccc(Cl)cc3)nc2)CC1`, the cell number change was -26.1%. In addition, the AC50 under setting [2] was 29.1 µM [falling, single point].

In the case of `O=c1c2c3n(c(=S)nc2[nH]n1-c1ccccc1)CCCCC3`, the cell number change is 6.99%. In addition, the AC50 under setting [2] was 0.92 µM [falling, full curve, poor fit].

Consider `Oc1c(Br)cc2oc3c(c2c1CNCc1ccccc1)CCCC3`, for which the cell number change stood at 2.08%. Under setting [2], the AC50 was 29.1 µM [rising, single point].

Regarding `CC(C)C(C(=O)Nc1nccs1)c1ccc(Cl)cc1` (stereo unspecified), the cell number change was -19%. For the same molecule, the AC50 under setting [2] was 1.16 µM [rising, full curve].

Take `O=C(NC(Cc1ccccc1)C(=O)O)/C(=C/c1ccc(Cl)cc1)NC(=O)c1ccco1` (stereo unspecified): the cell number change was determined as 47.6%. The AC50 under setting [1] was 29.1 µM [rising, single point].

In the case of `CCOC(=O)c1c(C)[nH]c(C(=O)COC(=O)/C=C/c2ccc(OC(F)F)cc2)c1C`, the cell number change came to 0.689%. Also, the AC50 under setting [1] is 2.59 µM [rising, partial curve].

Turning to `CC(C)Cc1csc(NC(=O)c2ccc(F)cc2)c1C(=O)O`, the cell number change was 51.5%. The AC50 under setting [1] is 1.64 µM [rising, partial curve]. The AC50 under setting [2] was 29.1 µM [rising, single point].

Consider `COc1ccc([N+](=O)[O-])cc1N1C(=O)c2cccnc2C1=O`, for which the AC50 under setting [2] was 0.411 µM [falling, full curve].

`O=C(Cn1nc(-c2cccc(Cl)c2)ccc1=O)Nc1cccnc1`: the cell number change was -21.4%. For the same molecule, the AC50 under setting [2] was 0.0326 µM [rising, full curve, poor fit].

Regarding `COc1cc2c(cc1OC)CN(CC(=O)Nc1ccc(F)cc1)CC2`, the cell number change stood at 5.94%.

Take `O=C(Nc1ccccc1Cl)NC1(C(=O)NCc2ccncc2)CCCCC1`: the cell number change is -17.1%.

With `CC1CN=C2C(C(=O)Nc3ccccc3)=C(O)CC(c3ccccc3)N21` (stereo unspecified), the cell number change is -7.28%.

Take `CCOc1ccc(Br)cc1C1=NN(C(C)=O)C(c2ccc([N+](=O)[O-])s2)O1` (stereo unspecified): the cell number change stood at 16.7%.

Take `Cc1ccc(C)c(NC(=S)N2CCC(NC(=O)C3CCCCC3)CC2)c1`: the cell number change turned out to be 5.41%. In addition, the AC50 under setting [2] was 6.51 µM [rising, single point].

As to `CCn1c(CSc2nc3ccccc3s2)nnc1SCC(=O)OC(C)(C)C`, the cell number change was -32.5%. The AC50 under setting [1] was 32.6 µM [falling, single point]. The AC50 under setting [2] was 23.1 µM [falling, partial curve].

For the molecule `c1ccc2c3c([nH]c2c1)-c1[nH]ncc1CC3`, the cell number change is -18.6%. For the same molecule, the AC50 under setting [2] was 6.51 µM [rising, single point].

As for `CCn1c2ccccc2c2cc(NC(=O)c3ccc(C)c([N+](=O)[O-])c3)ccc21`, the cell number change is 5.39%. Moreover, the AC50 under setting [2] was 0.517 µM [rising, full curve].

Regarding `CC1CCCC(C)N1C(=O)CSc1nnc(C2CCCCC2)o1` (stereo unspecified), the cell number change was -0.453%.

For `O=C(CSc1ccc(Cl)cc1)NNC(=O)c1ccncc1`, the cell number change is 35.9%. Also, the AC50 under setting [1] is 29.1 µM [rising, single point].

`CC(NC(=O)CCSCc1ccccc1F)c1ccccc1` (stereo unspecified): the cell number change was -4.23%. Also, the AC50 under setting [2] was 29.1 µM [rising, single point].

For the molecule `C(=C\c1ccccc1)/CNCC1CCCO1` (stereo unspecified), the cell number change stood at 37.3%. Moreover, the AC50 under setting [1] is 0.651 µM [rising, full curve].

For `O=C(c1ccc2c(c1)N(Cc1ccccc1F)C(=O)c1ccccc1S2(=O)=O)N1CCCC1`, the cell number change is -19.2%.

Consider `Cc1cc2c(cc1S(=O)(=O)Nc1ccc(F)cc1)n(C)c(=O)c(=O)n2C`, for which the cell number change was -3.17%. In addition, the AC50 under setting [2] was 8.2 µM [falling, partial curve].

With `COc1ccc(NC(=O)CN(C)C(=O)c2cc(-c3cccs3)nn2-c2ccccc2)cc1`, the AC50 under setting [2] was 0.00461 µM [falling, full curve, poor fit].

Turning to `CC1(C)SC(=S)N(NC(=O)Nc2cccc3ccccc23)C1N(O)C(=O)Nc1ccccc1` (stereo unspecified), the cell number change was -36.2%. The AC50 under setting [1] is 0.259 µM [falling, full curve, poor fit]. Further, the AC50 under setting [2] was 29.1 µM [rising, single point].

For the molecule `COc1ccc2[nH]c(C(=O)N/N=C/c3ccc(O)cc3O)cc2c1`, the cell number change is -24.8%. Moreover, under setting [2], the AC50 is 0.082 µM [falling, full curve].

As for `O=C(COC(=O)CCC(=O)c1ccc(F)cc1)Nc1ccccc1`, under setting [1], the AC50 is 5.8 µM [rising, single point].

For `COc1ccc(CCN2C(=O)CSC2=Nc2ccc(C)cc2C)cc1OC`, the cell number change amounted to 7.17%. The AC50 under setting [2] was 6.51 µM [rising, single point].

`C=CCN(CC=C)CCOc1cccc(Oc2ccccc2)c1`: the cell number change is -1.47%.
